Targets (5′ to 3′):
SAM-II: SAM-II riboswitch RNA pseudoknot, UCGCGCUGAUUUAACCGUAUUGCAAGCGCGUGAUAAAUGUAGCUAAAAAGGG. About 21,000 compounds screened, about 200 hits.
PreQ1: PreQ1 riboswitch RNA pseudoknot, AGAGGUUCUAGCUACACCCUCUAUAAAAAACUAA. From B. subtilis. About 24,000 compounds screened, about 170 hits.
TPP: TPP riboswitch RNA three-way junction, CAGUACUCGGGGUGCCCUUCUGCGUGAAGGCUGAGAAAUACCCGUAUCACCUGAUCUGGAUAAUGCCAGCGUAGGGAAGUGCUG. About 24,000 compounds screened, about 160 hits.

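The test is a small-molecule microarray: each compound is printed twice on a reactive slide, and binding shows as fluorescence of the labelled oligonucleotide after washing. The data file lists only calls. An earlier report of the laboratory on the PreQ1, TPP and SAM-II riboswitches (doi:10.1038/s41467-019-09493-3) used 1 µM RNA for 2 h and required a mean Z-score above 3 (spot signal-to-noise against the whole library), a score well above that on a control array, and duplicate spots agreeing (coefficient of variation under 100); it then also set aside compounds that hit other targets, which this list keeps. The cut-offs behind this list may differ. A missing hit is not proof of no binding, and a hit is not a measured affinity.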 A compound is marked hit if it was called a hit and none if it was screened but was not. This is an unselected part of the compounds tested. A dash means that no call is listed here.

structure	SAM-II	PreQ1	TPP
O=c1oc2c(cc1O)oc(=O)c1cc(O)c(O)c(O)c12	none	none	none
COc1ccc(NC2=NS(=O)(=O)C(c3ccccc3)=C2C)cc1OC	-	none	none
CCn1c(C2CCNCC2)nn(CC2CN(Cc3ccccc3)CCO2)c1=O (stereo not shown)	none	none	none
Brc1ccc(CNC23CN4CN(CN(C4)C2)C3)cc1	none	none	none
O=C(NCCCn1ccnc1)c1ccc(C2CCCNC2)cc1 (stereo not shown)	none	none	none
O=C1CCC2(CCNCC2)CN1Cc1nnc2ccccn12	none	none	none
COc1ccc(-c2cc(C(F)(F)F)nc(NC3CCCC3)n2)cc1	none	none	none
CC(Nc1nc(N2CCCC2)nc2ccccc12)c1ccccc1 (stereo not shown)	none	none	none
Cc1ccc(NCCCC(=O)NN=Cc2cccs2)cc1	none	none	hit
CCOC(=O)c1ccc(Nc2nc(C(=O)OCC)nc3ccccc23)cc1	none	none	none
N[C@@H]1c2ccccc2C2(CCN(Cc3c[nH]nc3-c3ccccc3)CC2)[C@H]1O	none	none	none
CC12CCC(C1)C(C)(C)C2OC(=O)c1ccccc1C(=O)O (stereo not shown)	none	none	none
Nc1c(-c2nc(-c3cccnc3)no2)nnn1-c1ccc(Cl)cc1	-	none	none
C[C@@H](c1ncncc1F)[C@](O)(Cn1cncn1)c1ccc(F)cc1F	none	none	none
CC(Oc1ccc2ccccc2c1)C(=O)NCc1nc(N)nc(N(C)C)n1 (stereo not shown)	none	none	none
CC(C)c1n[nH]c2c1C1(C(C#N)=C(N)O2)c2ccccc2-c2ccccc21	none	none	none
COC(=O)c1c(C)sc2c1OC(N)=C(C#N)C2c1ccc2ccccc2c1 (stereo not shown)	none	none	none
CCN(CC)C(=O)[C@@H]1C[C@@H](N)CN1C(=O)c1cc2c([nH]c1=O)CCC2	none	none	none
COCC(C)NCc1c(F)cccc1F (stereo not shown)	none	none	none
CCOC(=O)c1cn(C)c(C(=O)OC)c1N	none	none	none
Nc1nonc1C(=O)NCCNCc1cccc(OCc2ccc(F)cc2)c1	-	none	none
Cc1nc2c(c(NCCCc3nc4ccccc4[nH]3)n1)CCNCC2	none	none	none
c1ccc(Cc2nc(CNc3ncnc4c3CCNCC4)cs2)cc1	none	none	none
CCSc1ccc(NC(=O)N(Cc2ccncc2)C(CC)CO)cc1 (stereo not shown)	none	none	none
CSc1ncc(C(=O)NC2CC2)c(N)n1	none	none	none
CC(C)[C@H](O)C(=O)N[C@@H](C)C(=O)N[C@@H]1C(=O)N(C)CCc2ccccc21	none	none	none
CC(=O)c1cnc(NCC(O)COC2CCCCC2)nc1C (stereo not shown)	none	none	none
Cc1noc(C)c1CN1C[C@@H]2CC[C@H](C1)N(C(=O)c1ccc(CO)o1)C2	none	none	none
O=c1cc(CN2CCCC(Nc3ccc4c(c3)OCO4)C2)[nH]c2ncnn12 (stereo not shown)	none	none	none
CCN(CC)CCCC(C)Nc1nc(C)cc(Nc2ccc3nc(C)cc(N)c3c2)n1 (stereo not shown)	none	none	none
COc1ccc(CCNc2nc(-c3cccs3)cs2)cc1OC	none	none	none
Cn1c(=O)[nH]c(=O)c2c1nc(N)n2CC(O)COc1ccc(Cl)cc1 (stereo not shown)	none	none	none
CC(=O)c1c(C)nnn1-c1nonc1N	none	none	none
COC(=O)c1cc(NC2=C(C(N)=O)S(=O)(=O)c3ccccc32)ccc1Cl	-	none	none
CNc1nc2[nH]c(=O)c3c(c2s1)OC(N)=C(C#N)C3c1cccc(F)c1 (stereo not shown)	none	none	none
Cc1nc2c(c(NCCCN3CCOCC3)n1)CCC2	-	none	none
OCCN1CCN(c2nc3ccccc3nc2-c2ccccc2)CC1	none	none	none
COc1ccc(-c2ccc(CNCCc3ccc(S(N)(=O)=O)cc3)o2)cc1Cl	-	none	none
Cc1ccc(Nc2nc(N3CCOCC3)c3ccccc3n2)cc1	none	none	none
C=CCOc1c(Cl)cc(C2C(C#N)=C(N)Oc3cc(O)ccc32)cc1OC (stereo not shown)	none	none	none
Cc1nccn1CCCC(=O)N1C[C@@H](CN2CCCC2)[C@@H](CO)C1	none	none	none
Cc1ccc(-c2noc(-c3nnn(-c4ccccc4)c3N)n2)cc1	-	none	none
C=CCOc1cc(C2CC(=O)Nc3nc(N)sc32)ccc1OC (stereo not shown)	none	none	none
Nc1ccccc1Sc1nc(Cl)nn1Cc1ccccc1	none	none	none
COCCC1(CO)CCCN(Cc2cnc(C)cn2)C1 (stereo not shown)	none	none	none
CCc1csc(CNC(=O)[C@H](N)c2ccccc2)n1	none	none	none
Cc1cccc(OC2CCN(Cc3c(CO)cnc(C)c3O)CC2)c1	none	none	none
CCCCN1CCCC2(CCNCC2)CC1	none	none	none
CC(C)(C)NC1=CC(=O)OC12CCCCC2	none	none	none
CN(CC1CCN(Cc2ccccc2)CC1)C(=O)[C@@H](N)C1CCCCC1	none	none	none
CC1C(=NO)C(C)C(c2ccco2)NC1c1ccco1 (stereo not shown)	none	none	none
COc1ccc2c(=O)cc(-c3cccnc3)oc2c1OC	none	none	none
Cc1cc(N)nc(SCCCN(C)C)n1	none	none	none
Cc1ccc(Cl)cc1NC1OC(=O)c2ccccc21 (stereo not shown)	none	none	none
CN(C)S(=O)(=O)N1C(=O)c2ccccc2C1=O	none	none	none
CC(C)CN1CCN(Cc2cnc(N)nc2)CC(O)C1 (stereo not shown)	none	none	none
Cc1c(C(=O)N2CCCCC2CN)n(C)c2ccc(F)cc12 (stereo not shown)	none	none	none
CN(C)CCCNc1c([N+](=O)[O-])c(=O)oc2ccccc12	none	none	none
Nc1cc(C(F)(F)F)ccc1Oc1ccccc1-c1ccccc1	none	none	none
Fc1ccc(-c2ccc(CNCc3ccncc3)o2)cc1	-	none	none
Cc1ccc(-c2cnc(NCc3ccc(F)cc3F)n2C)cc1	none	none	none

Calls as published in the ROBIN set (doi:10.1002/anie.202211358).